Assay results taken from patent US20230039219A1, “Improved Cell-Permeable Nuclear Import Inhibitor Synthetic Peptide for Inhibition of Cytokine Storm or Inflammatory Disease and Use Thereof” (priority 2020, published 2023).
Results are given in words; binding and its absence hold for the method and conditions named. Some entries that bind do so weakly or less than the wild type.

Chains of the proteins cited; added tags and fusions are not shown.
UniProt P52294: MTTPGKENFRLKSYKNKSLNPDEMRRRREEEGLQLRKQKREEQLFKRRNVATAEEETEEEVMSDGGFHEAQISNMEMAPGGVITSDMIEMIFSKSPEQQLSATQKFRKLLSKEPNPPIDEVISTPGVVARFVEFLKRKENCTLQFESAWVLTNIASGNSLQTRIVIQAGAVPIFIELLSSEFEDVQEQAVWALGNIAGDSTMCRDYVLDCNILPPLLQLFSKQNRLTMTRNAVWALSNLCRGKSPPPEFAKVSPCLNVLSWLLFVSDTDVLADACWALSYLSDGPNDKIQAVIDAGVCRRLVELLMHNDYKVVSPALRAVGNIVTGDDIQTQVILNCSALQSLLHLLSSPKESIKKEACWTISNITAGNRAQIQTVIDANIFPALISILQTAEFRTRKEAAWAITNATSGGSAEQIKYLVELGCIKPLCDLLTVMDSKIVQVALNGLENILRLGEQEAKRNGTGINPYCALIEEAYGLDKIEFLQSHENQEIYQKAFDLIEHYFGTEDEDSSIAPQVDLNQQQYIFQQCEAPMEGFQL

Assays:
Importin-a5 [1] = molecular target: Importin-a5 (UniProt P52294); test: SPR (Biacore T200), importin a5 immobilised on CM5 chip, iCP-NI injected at 10-100 µM
Importin-a5 [2] = molecular target: Importin-a5 (UniProt P52294); test: SPR (Biacore T200), importin a5 immobilised on CM5 chip

binding (Importin-a5 [1]): binds
binding (Importin-a5 [2]): binds
Binder: IAAVLAAPALVPCVQRKRQKLMPC (NLS part circularized by a disulfide bond between its two flanking cysteines) [improved cell-permeable nuclear import inhibitor (iCP-NI) synthetic peptide, aMTD827-cNLS]
